Among the data in article PMC4797270 are binding values, retold here.

Protein sequences, listed by entry. Tags and fused reporters are not part of them. Lines headed by an entry give the natural chain unless they say otherwise; changes in a name come on top.
UniProt Q0KIB3: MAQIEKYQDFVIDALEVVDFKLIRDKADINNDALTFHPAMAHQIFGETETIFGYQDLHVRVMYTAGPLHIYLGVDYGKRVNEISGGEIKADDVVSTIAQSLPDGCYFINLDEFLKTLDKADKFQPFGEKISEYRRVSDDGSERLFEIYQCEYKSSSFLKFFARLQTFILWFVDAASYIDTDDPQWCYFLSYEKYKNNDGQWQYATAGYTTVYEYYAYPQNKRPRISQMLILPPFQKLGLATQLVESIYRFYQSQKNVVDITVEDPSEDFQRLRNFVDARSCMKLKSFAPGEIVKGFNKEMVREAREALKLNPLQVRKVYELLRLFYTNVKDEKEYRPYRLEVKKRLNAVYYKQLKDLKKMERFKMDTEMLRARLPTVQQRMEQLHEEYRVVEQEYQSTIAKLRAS
UniProt Q24572: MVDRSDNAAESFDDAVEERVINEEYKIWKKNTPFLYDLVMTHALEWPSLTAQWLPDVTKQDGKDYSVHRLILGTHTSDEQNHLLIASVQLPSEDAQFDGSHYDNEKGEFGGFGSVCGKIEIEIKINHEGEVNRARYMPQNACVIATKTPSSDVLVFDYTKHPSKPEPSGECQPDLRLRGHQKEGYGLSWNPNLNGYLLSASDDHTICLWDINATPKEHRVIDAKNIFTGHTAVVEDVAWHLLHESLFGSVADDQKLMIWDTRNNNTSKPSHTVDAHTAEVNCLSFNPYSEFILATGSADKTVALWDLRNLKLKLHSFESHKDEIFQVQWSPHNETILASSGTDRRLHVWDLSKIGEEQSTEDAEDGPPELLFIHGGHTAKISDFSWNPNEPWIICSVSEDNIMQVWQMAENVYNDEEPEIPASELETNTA
UniProt Q8IRG6: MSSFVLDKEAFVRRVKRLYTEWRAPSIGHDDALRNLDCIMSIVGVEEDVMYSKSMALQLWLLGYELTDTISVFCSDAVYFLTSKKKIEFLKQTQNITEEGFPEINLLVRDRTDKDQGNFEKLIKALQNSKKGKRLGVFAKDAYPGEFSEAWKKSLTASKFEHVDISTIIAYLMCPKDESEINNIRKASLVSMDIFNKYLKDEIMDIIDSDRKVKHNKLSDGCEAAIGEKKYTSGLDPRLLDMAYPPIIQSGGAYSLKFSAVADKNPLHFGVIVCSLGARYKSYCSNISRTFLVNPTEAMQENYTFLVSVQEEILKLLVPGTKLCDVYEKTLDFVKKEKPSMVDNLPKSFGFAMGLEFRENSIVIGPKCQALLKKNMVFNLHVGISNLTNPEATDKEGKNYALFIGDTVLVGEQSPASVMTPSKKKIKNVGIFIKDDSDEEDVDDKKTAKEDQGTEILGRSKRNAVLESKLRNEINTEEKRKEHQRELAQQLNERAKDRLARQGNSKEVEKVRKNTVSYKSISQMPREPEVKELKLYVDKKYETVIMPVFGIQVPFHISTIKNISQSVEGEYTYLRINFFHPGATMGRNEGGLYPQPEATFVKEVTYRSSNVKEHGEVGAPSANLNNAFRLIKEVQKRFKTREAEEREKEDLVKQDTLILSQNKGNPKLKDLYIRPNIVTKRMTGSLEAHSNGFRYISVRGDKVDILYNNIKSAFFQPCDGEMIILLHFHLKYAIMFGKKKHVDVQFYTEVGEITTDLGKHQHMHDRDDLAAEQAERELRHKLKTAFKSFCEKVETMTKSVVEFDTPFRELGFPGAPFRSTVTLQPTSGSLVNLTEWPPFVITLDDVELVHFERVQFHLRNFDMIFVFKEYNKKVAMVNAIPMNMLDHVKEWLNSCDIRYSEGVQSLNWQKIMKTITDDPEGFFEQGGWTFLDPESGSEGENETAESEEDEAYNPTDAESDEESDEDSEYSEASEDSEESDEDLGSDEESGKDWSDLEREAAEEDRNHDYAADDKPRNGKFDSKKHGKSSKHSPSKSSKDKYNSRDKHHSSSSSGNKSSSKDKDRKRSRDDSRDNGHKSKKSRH
UniProt Q9V6Q2: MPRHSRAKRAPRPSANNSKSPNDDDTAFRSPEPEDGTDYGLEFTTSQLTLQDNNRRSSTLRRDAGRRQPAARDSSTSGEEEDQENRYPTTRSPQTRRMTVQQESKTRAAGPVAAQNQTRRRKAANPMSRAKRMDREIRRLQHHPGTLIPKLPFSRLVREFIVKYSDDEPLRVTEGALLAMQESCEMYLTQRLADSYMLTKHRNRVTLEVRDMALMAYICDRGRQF

These are yes or no findings as the source states them, for the method shown. Binding can be weak; no strength is given. For some of these results: Binding seen in cells or lysates may run through a third protein.

Assay [1] addresses SF-CG2051/Hat1 (S2 cells) (Drosophila melanogaster) (UniProt Q0KIB3). The assay can be described thus: co-IP; SEC fraction B15 (CG2051/Hat1 peak) of S2 nuclear extract; IP with antibodies against Flag-CG2051, western blot. Background: Immunoblotting shows a protein as a band on a membrane.
Assay [2] has the same target. The assay can be described thus: SEC; Superose 6 (100 ml) of nuclear extract from S2 cells stably expressing SF-CG2051; 30 mM Tris/HCl pH 8, 200 mM NaCl, 2 mM EDTA, 10% glycerol; fractions analysed by western blot. For orientation: In gel filtration, larger molecules generally elute earlier.
The target in assay [3] is CAL1 (Chromosome Alignment Specific 1), endogenous (Drosophila melanogaster (endogenous in S2)). Nature of the assay: co-IP; SEC fraction B13 (FACT-CAL1 peak) of S2 nuclear extract; IP with antibodies against CENP-A or CAL1, western blot.

As to “Caf1 (Rbap46/48), endogenous (from UniProt Q24572 1-430)”, the binding result in assay [1] is listed as “binds”.

“FACT subunit Dre4, endogenous (from UniProt Q8IRG6 1-1083)”: the binding entry in assay [1] and in assay [2] was “no binding” in each case. Take “CENP-A/Cid (endogenous) (from UniProt Q9V6Q2 1-225)”: the binding entry in assay [1] and in assay [2] was “binds” in each case.

B1: FACT subunit Ssrp, endogenous (protein, UniProt Q05344 1-723)
chain: MTDSLEYNDINAEVRGVLCSGRLKMTEQNIIFKNTKTGKVEQISAEDIDLINSQKFVGTWGLRVFTKGGVLHRFTGFRDSEHEKLGKFIKAAYSQEMVEKEMCVKGWNWGTARFMGSVLSFDKESKTIFEVPLSHVSQCVTGKNEVTLEFHQNDDAPVGLLEMRFHIPAVESAEEDPVDKFHQNVMSKASVISASGESIAIFREIQILTPRGRYDIKIFSTFFQLHGKTFDYKIPMDSVLRLFMLPHKDSRQMFFVLSLDPPIKQGQTRYHYLVLLFAPDEETTIELPFSEAELRDKYEGKLEKEISGPVYEVMGKVMKVLIGRKITGPGNFIGHSGTAAVGCSFKAAAGYLYPLERGFIYIHKPPLHIRFEEISSVNFARSGGSTRSFDFEVTLKNGTVHIFSSIEKEEYAKLFDYITQKKLHVSNMGKDKSGYKDVDFGDSDNENEPDAYLARLKAEAREKEEDDDDGDSDEESTDEDFKPNENESDVAEEYDSNVESDSDDDSDASGGGGDSDGAKKKKEKKSEKKEKKEKKHKEKERTKKPSKKKKDSGKPKRATTAFMLWLNDTRESIKRENPGIKVTEIAKKGGEMWKELKDKSKWEDAAAKDKQRYHDEMRNYKPEAGGDSDNEKGGKSSKKRKTEPSPSKKANTSGSGFKSKEYISDDDSTSSDDEKDNEPAKKKSKPPSDGDAKKKKAKSESEPEESEEDSNASDEDEEDEASD
Regarding B1, the binding result in assay [1] is listed as “no binding”; in assay [3] it was “binds weakly”.
